Publication PMC3823977
Substitutions are numbered along the chain they refer to. No constants are given. Whether binding was seen depends on the method and setting. Some results given as binding are weak or reduced against the parent protein; the word gives no strength. Sequences can lack the tags named with a protein.

T1: BD-SETX-wt, wild type senataxin residues 1–650 as yeast two-hybrid bait (human) (UniProt Q7Z333)
T1 sequence: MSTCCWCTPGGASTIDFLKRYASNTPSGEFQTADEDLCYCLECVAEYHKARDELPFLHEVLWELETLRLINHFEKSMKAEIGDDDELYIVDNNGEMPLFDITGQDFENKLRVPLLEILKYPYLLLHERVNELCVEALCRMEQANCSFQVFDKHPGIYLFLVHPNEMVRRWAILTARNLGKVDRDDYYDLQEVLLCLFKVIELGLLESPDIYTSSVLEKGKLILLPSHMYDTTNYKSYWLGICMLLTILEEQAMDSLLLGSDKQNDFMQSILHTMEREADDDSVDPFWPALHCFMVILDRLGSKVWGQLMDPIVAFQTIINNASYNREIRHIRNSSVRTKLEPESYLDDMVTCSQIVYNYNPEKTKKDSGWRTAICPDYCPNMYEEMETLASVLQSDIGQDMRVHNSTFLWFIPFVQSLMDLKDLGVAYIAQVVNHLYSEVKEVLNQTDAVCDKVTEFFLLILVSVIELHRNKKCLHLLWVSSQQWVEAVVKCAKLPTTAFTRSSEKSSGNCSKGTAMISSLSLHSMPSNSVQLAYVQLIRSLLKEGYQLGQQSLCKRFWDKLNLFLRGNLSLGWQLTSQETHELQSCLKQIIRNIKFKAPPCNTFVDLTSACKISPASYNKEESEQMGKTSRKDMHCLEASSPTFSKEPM

T2: BD-SETX-L389S, senataxin residues 1–650 with the ALS4 L389S mutation as yeast two-hybrid bait (human) (UniProt Q7Z333)
T2 sequence: T1 sequence with L389S

T3: BD-SETX-W305C, senataxin amino-terminal bait with the AOA2 mutation W305C (human) (UniProt Q7Z333)
T3 sequence: T1 sequence with W305C

B1: SAE2, SUMO-1 activating enzyme subunit 2, library prey clone (451–641 ter) (domain or fragment, UniProt Q9UBT2-1 451-640)
chain: TVRLNVHKVTVLTLQDKIVKEKFAMVAPDVQIEDGKGTILISSEEGETEANNHKKLSEFGIRNGSRLQADDFLQDYTLLINILHSEDLGKDVEFEVVGDAPEKVGPKQAEDAAKSITNGSDDGAQPSTSTAQEQDDVLIVDSDEEDSSNNADVSEEERSRKRKLDEKENLSAKRSRIEQKEELDDVIALD
B2: HIPK2, homeodomain interacting protein-kinase 2, library prey clone (216–527) (domain or fragment, UniProt Q9H2X6-1 216-527)
chain: CWKRGTNEIVAIKILKNHPSYARQGQIEVSILARLSTESADDYNFVRAYECFQHKNHTCLVFEMLEQNLYDFLKQNKFSPLPLKYIRPVLQQVATALMKLKSLGLIHADLKPENIMLVDPSRQPYRVKVIDFGSASHVSKAVCSTYLQSRYYRAPEIILGLPFCEAIDMWSLGCVIAELFLGWPLYPGASEYDQIRYISQTQGLPAEYLLSAGTKTTRFFNRDTDSPYPLWRLKTPDDHEAETGIKSKEARKYIFNCLDDMAQVNMTTDLEGSDMLVEKADRREFIDLLKKMLTIDADKRITPIETLNHPFV
B3: PIAS, E3 SUMO-protein ligase, library prey clone (318–652 ter) (domain or fragment, UniProt O75925-1 318-651)
chain: ADPDSEIATTSLRVSLLCPLGKMRLTIPCRALTCSHLQCFDATLYIQMNEKKPTWVCPVCDKKAPYEHLIIDGLFMEILKYCTDCDEIQFKEDGTWAPMRSKKEVQEVSASYNGVDGCLSSTLEHQVASHHQSSNKNKKVEVIDLTIDSSSDEEEEEPSAKRTCPSLSPTSPLNNKGILSLPHQASPVSRTPSLPAVDTSYINTSLIQDYRHPFHMTPMPYDLQGLDFFPFLSGDNQHYNTSLLAAAAAAVSDDQDLLHSSRFFPYTSSQMFLDQLSAGGSTSLPTTNGSSSGSNSSLVSSNSLRESHSHTVTNRSSTDTASIFGIIPDIISLD
B4: TOPORS, topoisomerase I-binding arginine/serine-rich protein, library prey clone (468–1046 ter) (domain or fragment, UniProt Q9NS56-1 468-1045)
chain: NNDSDDSSDNCVIVGFVKPLAERTPELVELSSDSEDLGSYEKMETVKTQEQEQSYSSGDSDVSRCSSPHSVLGKDEQINKGHCDSSTRIKSKKEEKRSTSLSSPRNLNSSVRGDRVYSPYNHRHRKRGRSRSSDSRSQSRSGHDQKNHRKHHGKKRMKSKRSRSRESSRPRGRRDKKRSRTRDSSWSRRSQTLSLSSESTSRSRSRSSDHGKRRSRSRNRDRYYLRNNYGSRYKWEYTYYSRNKDRDGYESSYRRRTLSRAHYSRQSSSPEFRVQSFSERTNARKKNNHSERKYYYYERHRSRSLSSNRSRTASTGTDRVRNEKPGGKRKYKTRHLEGTNEVAQPSREFASKAKDSHYQKSSSKLDGNYKNESDTFSDSRSSDRETKHKRRKRKTRSLSVEIVYEGKATDTTKHHKKKKKKHKKKHKKHHGDNASRSPVVITIDSDSDKDSEVKEDTECDNSGPQDPLQNEFLAPSLEPFETKDVVTIEAEFGVLDKECDIATLSNNLNNANKTVDNIPPLAASVEQTLDVREESTFVSDLENQPSNIVSLQTEPSRQLPSPRTSLMSVCLGRDCDMS
B5: SETX library prey clone (amino acids 1–668, N-term) (domain or fragment, UniProt Q7Z333-1 1-668)
chain: MSTCCWCTPGGASTIDFLKRYASNTPSGEFQTADEDLCYCLECVAEYHKARDELPFLHEVLWELETLRLINHFEKSMKAEIGDDDELYIVDNNGEMPLFDITGQDFENKLRVPLLEILKYPYLLLHERVNELCVEALCRMEQANCSFQVFDKHPGIYLFLVHPNEMVRRWAILTARNLGKVDRDDYYDLQEVLLCLFKVIELGLLESPDIYTSSVLEKGKLILLPSHMYDTTNYKSYWLGICMLLTILEEQAMDSLLLGSDKQNDFMQSILHTMEREADDDSVDPFWPALHCFMVILDRLGSKVWGQLMDPIVAFQTIINNASYNREIRHIRNSSVRTKLEPESYLDDMVTCSQIVYNYNPEKTKKDSGWRTAICPDYCPNMYEEMETLASVLQSDIGQDMRVHNSTFLWFIPFVQSLMDLKDLGVAYIAQVVNHLYSEVKEVLNQTDAVCDKVTEFFLLILVSVIELHRNKKCLHLLWVSSQQWVEAVVKCAKLPTTAFTRSSEKSSGNCSKGTAMISSLSLHSMPSNSVQLAYVQLIRSLLKEGYQLGQQSLCKRFWDKLNLFLRGNLSLGWQLTSQETHELQSCLKQIIRNIKFKAPPCNTFVDLTSACKISPASYNKEESEQMGKTSRKDMHCLEASSPTFSKEPMKVQDSVLIKADNTIEGDN

Molecular target: T1, BD-SETX-wt, wild type senataxin residues 1–650 as yeast two-hybrid bait (human)
Assay: two-hybrid; yeast, Matchmaker GAL4 system; senataxin 1–650 baits in pGBKT7-BD, human brain library preys in pGADT7-Rec; library screens by mating, retest by mating and by co-transformation with patching of serial dilutions on Leu-/Trp-/His- medium with 3 mM 3-AT

Row | Binder | binding
1 | B1 | binds
2 | B2 | binds
3 | B3 | binds
4 | B4 | binds
5 | B5 | binds

Molecular target: T2, BD-SETX-L389S, senataxin residues 1–650 with the ALS4 L389S mutation as yeast two-hybrid bait (human)
Assay: as above

Row | Binder | binding
6 | B1 | binds
7 | B2 | binds
8 | B3 | binds
9 | B4 | binds
10 | B5 | binds

Molecular target: T3, BD-SETX-W305C, senataxin amino-terminal bait with the AOA2 mutation W305C (human)
Assay: as above

Row | Binder | binding
11 | B1 | binds
12 | B2 | binds
13 | B3 | binds
14 | B4 | binds
15 | B5 | binds
